Measured values as given in the supplement of paper PMC10331698.
± gives the standard deviation of the averaged measurements. Small differences around the control level are noise.

Tests used:
Assay in all cases: level (log10 ratio to DMSO vehicle control); higher = higher biomarker level / cell amount than vehicle control
[1] = compound: C=C(C)C(=O)OCCC(F)(F)C(F)(F)C(F)(F)C(F)(F)C(F)(F)C(F)(F)F [6:2 Fluorotelomer methacrylate] (in DMSO); details: 2200 nM
Method: (§1)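 BioMAP Diversity Plus panel of 12 human primary cell co-culture systems (3C, 4H, LPS, SAg, BT, BF4T, BE3C, CASM3C, HDF3CGF, KF3CT, MyoF, Mphg). Compounds were added 1 h before stimulation and left for 24 h (MyoF 48 h; BT 72 h for soluble read-outs or 6 d for IgG). Biomarkers were read by ELISA, cytotoxicity by SRB, PBMC viability and proliferation by Alamar Blue. Each well value was divided by the mean of 8 DMSO control wells on the same plate and log10 transformed; duplicate blinded samples were tested at 4 concentrations.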

Hexafluoroglutaric acid = compound: O=C(O)C(F)(F)C(F)(F)C(F)(F)C(=O)O [Hexafluoroglutaric acid] (in DMSO)
Method: as §1

[2] = compound: FC(F)(F)C(F)(F)C(F)(F)C(F)(F)CCI [1H,1H,2H,2H-Perfluorohexyl iodide] (in DMSO); details: 2200 nM
Method: as §1

Perfluorohexanoic acid = compound: O=C(O)C(F)(F)C(F)(F)C(F)(F)C(F)(F)C(F)(F)F [Perfluorohexanoic acid] (in DMSO)
Method: as §1

[3] = compound: FC(F)(F)C(F)(F)CNCC(F)(F)C(F)(F)F [Bis(1H,1H-perfluoropropyl)amine] (in DMSO); details: 2200 nM
Method: as §1

[4] = compound: OCC(F)(F)C(F)(F)C(F)(F)C(F)(F)C(F)(F)C(F)(F)F [6:1 Fluorotelomer alcohol] (in DMSO); details: 2200 nM
Method: as §1

[5] = compound: O=C(O)CCC(F)(F)C(F)(F)C(F)(F)F [3:3 Fluorotelomer carboxylic acid] (in DMSO); details: 2200 nM
Method: as §1

[6] = compound: OCC(F)(F)C(F)(F)C(F)(F)C(F)(F)C(F)(F)C(F)(F)CO [1H,1H,8H,8H-Perfluorooctane-1,8-diol] (in DMSO); details: 2200 nM
Method: as §1

[7] = compound: O=C(O)C(F)(F)C(F)(F)C(F)(F)OC(F)(C(F)(F)F)C(F)(F)F [Perfluoro-4-isopropoxybutanoic acid] (in DMSO); details: 2200 nM
Method: as §1

[8] = compound: OCCCC(F)(F)C(F)(F)C(F)(F)C(F)(F)C(F)(F)C(F)(F)C(F)(F)C(F)(F)F [3-(Perfluorooctyl)propanol] (in DMSO); details: 2200 nM
Method: as §1

[9] = compound: OCC(F)(F)OC(F)(F)C(F)(F)OC(F)(F)CO [1H,1H,8H,8H-Perfluoro-3,6-dioxaoctane-1,8-diol] (in DMSO); details: 2200 nM
Method: as §1

[10] = compound: FC(F)(F)COC(OCC(F)(F)F)OCC(F)(F)F [tris(Trifluoroethoxy)methane] (in DMSO); details: 2200 nM
Method: as §1

[11] = compound: O=C(O)C(F)(OC(F)(F)C(F)(OC(F)(F)C(F)(OC(F)(F)C(F)(F)C(F)(F)F)C(F)(F)F)C(F)(F)F)C(F)(F)F [Perfluoro-(2,5,8-trimethyl-3,6,9-trioxadodecanoic)acid] (in DMSO); details: 370 nM
Method: as §1

[12] = compound: O=C(O)C(F)(OC(F)(F)C(F)(F)C(F)(F)F)C(F)(F)F [Ammonium perfluoro-2-methyl-3-oxahexanoate] (in Water)
Method: as §1

[13] = compound: CNS(=O)(=O)C(F)(F)C(F)(F)C(F)(F)C(F)(F)C(F)(F)C(F)(F)C(F)(F)C(F)(F)F [N-Methylperfluorooctanesulfonamide] (in DMSO); details: 2200 nM
Method: as §1

[14] = compound: O=S(=O)(O)C(F)(F)C(F)(F)C(F)(F)C(F)(F)F [Perfluorobutanesulfonic acid] (in DMSO)
Method: as §1

[15] = compound: OCC(F)(F)C(F)(F)C(F)(F)C(F)F [1H,1H,5H-Perfluoropentanol] (in DMSO); details: 2200 nM
Method: as §1

Test System	level (log10) [1]	level (log10) (Hexafluoroglutaric acid; 2200 nM)	level (log10) (Hexafluoroglutaric acid; 6700 nM)	level (log10) (Hexafluoroglutaric acid; 20000 nM)	level (log10) (Hexafluoroglutaric acid; 60000 nM)	level (log10) [2]	level (log10) (Perfluorohexanoic acid; 2200 nM)	level (log10) (Perfluorohexanoic acid; 6700 nM)	level (log10) (Perfluorohexanoic acid; 20000 nM)	level (log10) (Perfluorohexanoic acid; 60000 nM)	level (log10) [3]	level (log10) [4]	level (log10) [5]	level (log10) [6]	level (log10) [7]	level (log10) [8]	level (log10) [9]	level (log10) [10]	level (log10) [11]	level (log10) ([12]; 2200 nM)	level (log10) ([12]; 6700 nM)	level (log10) ([12]; 20000 nM)	level (log10) ([12]; 60000 nM)	level (log10) [13]	level (log10) ([14]; 2200 nM)	level (log10) ([14]; 6700 nM)	level (log10) ([14]; 20000 nM)	level (log10) ([14]; 60000 nM)	level (log10) [15]
BT:sIL-17A	-0.036 ± 0.1	0.035 ± 0.25	0.02 ± 0.073	-0.0205 ± 0.21	-0.0585 ± 0.12	-0.023 ± 0.065	-0.201 ± 0.097	0.009 ± 0.22	0.038 ± 0.075	-0.086 ± 0.068	-0.056 ± 0.19	-0.233 ± 0.033	-0.0945 ± 0.08	-0.04 ± 0.076	0.0025 ± 0.016	-0.041 ± 0.0042	0.06 ± 0.17	-0.166 ± 0.016	-0.0845 ± 0.032	-0.232 ± 0.15	0.001 ± 0.02	0.036 ± 0.037	-0.174 ± 0.096	0.06 ± 0.016	-0.0075 ± 0.11	-0.0215 ± 0.14	0.157 ± 0.016	0.021 ± 0.2	-0.025 ± 0.26
BT:sIL-17F	0 ± 0.021	0.009 ± 0.068	0.046 ± 0.071	0.0335 ± 0.05	-0.004 ± 0.0085	-0.0385 ± 0.025	-0.071 ± 0.14	-0.081 ± 0.0014	-0.002 ± 0.081	-0.047 ± 0.031	0.054 ± 0.081	-0.0185 ± 0.011	-0.045 ± 0.0028	0.002 ± 0.081	-0.133 ± 0.13	0.0365 ± 0.0078	0.007 ± 0.045	-0.0265 ± 0.056	-0.032 ± 0.2	0.0405 ± 0.05	0.111 ± 0.016	0.116 ± 0.012	0.0455 ± 0.012	-0.005 ± 0.16	-0.0135 ± 0.0092	0.008 ± 0.0057	0.0145 ± 0.04	-0.0225 ± 0.0064	0.063 ± 0.17
BT:sTNF-alpha	-0.0205 ± 0.042	0.0265 ± 0.018	0.026 ± 0.13	0.0415 ± 0.039	0.116 ± 0.039	0 ± 0.095	0.002 ± 0.048	-0.036 ± 0.05	-0.023 ± 0.081	-0.01 ± 0.11	0.0735 ± 0.018	0.037 ± 0.15	0.126 ± 0.12	0.012 ± 0.19	0.0255 ± 0.2	0.086 ± 0.15	-0.011 ± 0.018	0.083 ± 0.017	-0.004 ± 0.064	-0.0505 ± 0.13	-0.035 ± 0.037	0.013 ± 0.034	0.0045 ± 0.093	0.008 ± 0.12	-0.0515 ± 0.033	0.0295 ± 0.011	0.0515 ± 0.071	0.015 ± 0.011	0.0855 ± 0.12
CASM3C:CCL2/MCP-1	-0.0155 ± 0.022	0.0145 ± 0.063	-0.0115 ± 0.033	-0.024 ± 0.025	0.0205 ± 0.039	0.0355 ± 0.04	0.0075 ± 0.022	-0.014 ± 0.0042	0.0025 ± 0.021	0.008 ± 0.027	-0.0105 ± 0.012	0.002 ± 0.042	-0.0055 ± 0.012	0.0085 ± 0.044	0.0255 ± 0.032	0.009 ± 0.038	-0.0135 ± 0.037	0.0095 ± 0.035	0.008 ± 0.017	-0.033 ± 0.034	-0.0235 ± 0.021	-0.034 ± 0.035	-0.013 ± 0.013	0.0255 ± 0.033	0.001 ± 0.0099	-0.0085 ± 0.0092	-0.0125 ± 0.035	-0.0045 ± 0.021	0.019 ± 0.0042
CASM3C:CD87/uPAR	-0.022 ± 0.0042	-0.0225 ± 0.018	-0.001 ± 0.014	-0.0185 ± 0.033	-0.0075 ± 0.0035	-0.0085 ± 0.042	0.0185 ± 0.00071	-0.003 ± 0.027	0.0085 ± 0.022	-0.012 ± 0.0014	-0.022 ± 0.021	-0.021 ± 0.03	0.0005 ± 0.0021	-0.0155 ± 0.025	-0.0095 ± 0.033	-0.0295 ± 0.039	-0.0005 ± 0.0021	-0.0195 ± 0.005	-0.0035 ± 0.021	0.0175 ± 0.016	-0.031 ± 0.076	0.0075 ± 0.011	0.014 ± 0.027	-0.0025 ± 0.0092	-0.015 ± 0.023	-0.0275 ± 0.03	-0.047 ± 0.045	-0.0575 ± 0.0092	0.0115 ± 0.0092
CASM3C:CD106/VCAM-1	-0.0115 ± 0.00071	-0.0025 ± 0.06	-0.0105 ± 0.03	-0.0125 ± 0.036	0.012 ± 0.011	-0.013 ± 0.076	0.002 ± 0.02	-0.013 ± 0.011	-0.002 ± 0.014	-0.029 ± 0.018	-0.041 ± 0.028	-0.0015 ± 0.025	-0.006 ± 0.0057	0.0105 ± 0.0021	0.041 ± 0.054	-0.04 ± 0.033	-0.007 ± 0.017	-0.019 ± 0.017	-0.0065 ± 0.0092	-0.0525 ± 0.0035	-0.0955 ± 0.061	-0.0645 ± 0.005	-0.083 ± 0.011	-0.0225 ± 0.1	-0.003 ± 0.016	-0.0465 ± 0.021	-0.0255 ± 0.025	-0.033 ± 0.0057	-0.012 ± 0.0028
CASM3C:CD141/Thrombomodulin	0.0185 ± 0.079	0.0155 ± 0.026	-0.008 ± 0.0099	-0.0175 ± 0.0021	0.043 ± 0.065	0.0105 ± 0.043	-0.0055 ± 0.019	0.021 ± 0.021	-0.0105 ± 0.021	0.0005 ± 0.044	0 ± 0.0085	0.0065 ± 0.011	0.003 ± 0.011	-0.0205 ± 0.005	0.0255 ± 0.033	-0.018 ± 0.041	0.014 ± 0.027	-0.0235 ± 0.018	0.011 ± 0.024	0.0125 ± 0.025	0.113 ± 0.0057	0.0435 ± 0.11	0.035 ± 0.038	0.02 ± 0.069	-0.0235 ± 0.005	0.01 ± 0.028	-0.0095 ± 0.016	0.0075 ± 0.016	-0.001 ± 0.075
